Measured values reported in patent US20100286082A1, “RIBOSWITCHES AND METHODS AND COMPOSITIONS FOR USE OF AND WITH RIBOSWITCHES” (Yale University, priority 2007, published 2010).
For some assays here: At least one compound was matched to its structure with a doubt left. Some entries share one result that the patent states for a list of compounds.

Legend:
17-90 RNA mutant U33 = assay: In-line probing of 17-90 RNA carrying U at position 33; type: binding, Streptococcus pneumoniae R6
[1] = biological target: 17-90 RNA mutant M1 (P2 disruptive); assay: In-line probing of mutant 17-90 RNA M1; type: binding, Streptococcus pneumoniae R6
[2] = tested on: 17-90 RNA mutant M5 (P4 disruptive); assay: In-line probing of mutant 17-90 RNA M5; type: binding, Streptococcus pneumoniae R6
[3] = tested on: intergenic regions upstream of ORFs encoding COG4708 proteins; assay: In-line probing of intergenic regions upstream of COG4708 ORFs; type: binding
33-90 RNA = assay: In-line probing of 33-90 RNA; type: binding, Streptococcus pneumoniae R6
[4] = tested on: 17-90 RNA mutant M4 (P3 compensatory); assay: In-line probing of mutant 17-90 RNA M4; type: binding, Streptococcus pneumoniae R6
[5] = tested on: 17-90 RNA mutant M6 (P4 compensatory); assay: In-line probing of mutant 17-90 RNA M6; type: binding, Streptococcus pneumoniae R6
[6] = biological target: 17-90 RNA mutant M2 (P2 compensatory); assay: In-line probing of mutant 17-90 RNA M2; type: binding, Streptococcus pneumoniae R6
[7] = tested on: 17-90 RNA mutant M3 (P3 disruptive); assay: In-line probing of mutant 17-90 RNA M3; type: binding, Streptococcus pneumoniae R6
17-90 RNA mutant U41 = assay: In-line probing of mutant (U41) 17-90 RNA; type: binding, Streptococcus pneumoniae R6; conditions: relative to wild-type 17-90 RNA
17-90 RNA [8] = assay: In-line probing of 17-90 RNA (preQ1-II aptamer); type: binding, Streptococcus pneumoniae R6; conditions: read-out: apparent KD
17-90 RNA [9] = assay: Equilibrium dialysis of 3H-preQ1 with 17-90 RNA; type: binding, Streptococcus pneumoniae R6; conditions: excess unlabeled compound added to chamber a after equilibration
Procedure: Equilibrium dialysis experiments were preformed with ^3H-preQ1 and the 17-90 RNA construct to confirm ligand binding and the specificity of molecular recognition using a different methodology. For equilibrium dialysis, ^3H-preQ1 was added to chamber a of an equilibrium dialysis apparatus, and excess RNA is added to chamber b. The two chambers are separated by a 5,000 Dalton molecular weight cut off dialysis membrane (FIG. 18A). The solutions were allowed to equilibrate and the fraction of tritium in each chamber was subsequently measured by liquid scintillation counting. […] When ^3H-preQ1 ([…]) is equilibrated without RNA, or with an RNA that lacks the ability to form the P3 stem (1-81 RNA), the ^3H label distributes evenly (b/a ˜1). […]
A 30 μl mixture containing 50 mM Tris-HCl (pH 8.3 at 23° C.), 20 mM MgCl2, 100 mM KCl, and 1 μM of ^3H-labeled preQ1 was placed in one chamber of a DispoEquilibrium Dialyzer (ED-1, Harvard Bioscience) and the same volume containing the same constituents minus the ^3H-labeled preQ1 was added to the opposing side. When noted, the latter solution also contained either 5 μM 17-90 RNA or 5 μM 1-81 RNA. After equilibrating for 14 hours, a 5 μl aliquot was removed from each side of the apparatus to determine the distribution of ^3H-label in the two chambers by liquid scintillation counting. […]

[10] = tested on: SAH riboswitch of the ahcY 5′-UTR fused to lacZ (WT reporter strain); assay: In vivo reporter gene expression, ahcY 5′ UTR-lacZ translational fusion; type: cell-based, Pseudomonas syringae; conditions: Vogel-Bonner minimal medium; 25 μM Ado-2′,3′-dial or 250 μM of the other compounds
Procedure: An in vivo gene control assay was conducted wherein the IGR encompassing the 5′ UTR of the ahcY gene in P. syringae was fused immediately upstream of a lacZ coding sequence. This construct retained the start codon of the ahcY gene, which was fused in frame with the reporter gene ORF. The resulting translational fusion vector was transformed into P. syringae to produce the wild-type (WT) reporter strain. Similarly, a series of mutant reporter strains were constructed that are expected to disrupt or restore aptamer function (FIG. 13A). Transformed P. syringae strains subsequently were grown in either King's medium B (rich) or Vogel-Bonner medium (minimal), and the reporter expression levels of the mutant constructs were compared to the results from the WT reporter construct (FIG. 13B).
Nucleotides ˜367 to +6 relative to the predicted ahcY translation start site (GenBank accession: NC—004578.1; nucleotides 5,771,072 to 5,771,444) were amplified as a BamHI-HindIII fragment by whole-cell PCR of Pseudomonas syringae pv. tomato str. DC3000. The PCR product was cloned into the translational fusion vector pRA301 (Akakura and Winans, 2002) immediately upstream of the lacZ reporter gene. This reporter vector is stably maintained in pseudomonas since it harbors the origin of replication rep and stability region sta derived from the pseudomonas aeruginosa vector pVS1 (Itoh et al., 1984). […]

Compound | Kd (17-90 RNA mutant U33) [nM] | Kd ([1]; in-line probing) [µM] | decrease of ligand binding affinity ([1]; relative to 17-90 RNA) [fold] | preQ1 binding [2] | structural modulation in the presence of preQ1 [3] | KD (33-90 RNA) | preQ1 binding [4] | ligand binding [5] | Kd [6] [nM] | preQ1 binding [7] | loss in affinity (17-90 RNA mutant U41) | Kd (17-90 RNA [8]) [nM] | competition with 3H-preQ1 (distribution of 3H label) (17-90 RNA [9]) | increase of expression of the WT riboswitch-reporter fusion construct [10] [fold]
NCC1C=Nc2nc(N)[nH]c(=O)c21 (centres unmarked) [preQ1, 7-aminomethyl-7-deazaguanine] | ~250 | ~10 | ~100 | abolish preQ1 binding | None of the RNAs tested show structural modulation | approximately the same KD as the 17-90 RNA construct | does not yield a restoration of preQ1 binding | fully restores ligand binding | ~250 | abolish preQ1 binding | ~2 orders of magnitude | ~100 | causes the ^3H label to redistribute | –
adenosine-2′,3′-dialdehyde | – | – | – | – | – | – | – | – | – | – | – | – | – | 10 to 20
